Data as given in US20190185578A1.
Results are given in words; binding and its absence hold for the method and conditions named. A result given as binding can be weak or reduced; the word gives no strength.

Chains of the proteins cited; added tags and fusions are not shown. Lines headed by an entry give the natural chain unless they say otherwise; changes in a name come on top.
UniProt P00740: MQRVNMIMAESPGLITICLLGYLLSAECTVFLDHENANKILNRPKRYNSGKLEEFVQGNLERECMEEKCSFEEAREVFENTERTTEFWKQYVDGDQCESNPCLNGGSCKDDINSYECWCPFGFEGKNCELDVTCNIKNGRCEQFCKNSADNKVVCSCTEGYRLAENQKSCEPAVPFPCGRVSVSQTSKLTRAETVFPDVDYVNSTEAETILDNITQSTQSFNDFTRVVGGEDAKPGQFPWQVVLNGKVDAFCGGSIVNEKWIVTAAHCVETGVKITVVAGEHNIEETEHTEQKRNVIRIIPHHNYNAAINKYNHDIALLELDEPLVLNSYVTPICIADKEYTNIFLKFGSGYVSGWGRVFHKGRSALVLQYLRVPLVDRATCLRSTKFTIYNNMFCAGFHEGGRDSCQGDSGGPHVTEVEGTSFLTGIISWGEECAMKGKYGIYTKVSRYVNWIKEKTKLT

molecular target: biotinylated human FIXa (human) (UniProt P00740); assay: panning of an L chain library (fixed ACE910 H chain) on biotinylated human FIXa; no read-out printed

| binding | Binder |
| --- | --- |
| binds | QNK131 (heavy chain SEQ ID NO: 45 and light chain SEQ ID NO: 13) (antibody, V domains shown) VH: QVQLVESGGGLVQPGGSLRLSCAASGFTFSYYDIQWVRQAPGKGLEWVSSISPSGQSTYYRREVKGRFTISRDNSKNTLYLQMNSLRAEDTAVYYCARRTGREYGGGWYFDYWGQGTLVTVSS VL: EIVLTQSPATLSVSPGERATLSCRASQSVSSNLAWYQQKPGQAPRLLIYGASTRATGIPARFSGSGSGTEFTLTISSLQSEDFAVYYCQQYKRPLTFGGGTKVEIK |
| binds | QNK284 (heavy chain SEQ ID NO: 45 and light chain SEQ ID NO: 14) (antibody, V domains shown) VH: QVQLVESGGGLVQPGGSLRLSCAASGFTFSYYDIQWVRQAPGKGLEWVSSISPSGQSTYYRREVKGRFTISRDNSKNTLYLQMNSLRAEDTAVYYCARRTGREYGGGWYFDYWGQGTLVTVSS VL: DIQLTQSPSSLSASVGDRVTITCRASQGISSYLAWYQQKPGKAPKLLIYAASTLQSGVPSRFSGSGSGTDFTLTISSLQPEDFATYYCQQLNSYLGITFGPGTKVDIK |
| binds | QNL576 (heavy chain SEQ ID NO: 45 and light chain SEQ ID NO: 18) (antibody, V domains shown) V domain 1: QVQLVESGGGLVQPGGSLRLSCAASGFTFSYYDIQWVRQAPGKGLEWVSSISPSGQSTYYRREVKGRFTISRDNSKNTLYLQMNSLRAEDTAVYYCARRTGREYGGGWYFDYWGQGTLVTVSS V domain 2: QSALTQPPSLSVSPGQTASITCSGHKVGDKYASWYQQKPGQSPVLVIYQDSKRPSGIPERFSASNSGNTATLTISGTQAVDEADYYCLAWVPNSGYVFGTGTQVTVV |
| binds | QNL182 (heavy chain SEQ ID NO: 45 and light chain SEQ ID NO: 16) (antibody, V domains shown) V domain 1: QVQLVESGGGLVQPGGSLRLSCAASGFTFSYYDIQWVRQAPGKGLEWVSSISPSGQSTYYRREVKGRFTISRDNSKNTLYLQMNSLRAEDTAVYYCARRTGREYGGGWYFDYWGQGTLVTVSS V domain 2: SSGLTQPPSLSVSPGQTASITCSGHKVGDKYASWYQQKPGQSPVLVIYQDSKRPSGIPERFSASNSGNTATLTISGTQAVDEADYYCLAWVPNSGYVFGTGTQVTVV |
| binds | QNL492 (heavy chain SEQ ID NO: 45 and light chain SEQ ID NO: 17) (antibody, V domains shown) VH: QVQLVESGGGLVQPGGSLRLSCAASGFTFSYYDIQWVRQAPGKGLEWVSSISPSGQSTYYRREVKGRFTISRDNSKNTLYLQMNSLRAEDTAVYYCARRTGREYGGGWYFDYWGQGTLVTVSS VL: QSVLTQPASVSGSPGQSITISCTGTSSDVGSYNLVSWYQQHPGKAPKLMIYEVSKRPSGVSNRFSGSKSGNTASLTISGLQAEDEADYYCCSYAGSSTLVFGGGTKLTVL |
| binds | QNK315 (heavy chain SEQ ID NO: 45 and light chain SEQ ID NO: 15) (antibody, V domains shown) VH: QVQLVESGGGLVQPGGSLRLSCAASGFTFSYYDIQWVRQAPGKGLEWVSSISPSGQSTYYRREVKGRFTISRDNSKNTLYLQMNSLRAEDTAVYYCARRTGREYGGGWYFDYWGQGTLVTVSS VL: DIVMTQTPLSLSVTPGQPASVSCKSSQSLLRTDGKAYLDWYLQKPGQSPQLLIYEVSKRFSGVPDRFSGSGSGTDFTLKISRVEAEDVGVYYCMQRIQALSFGGGTKVDIK |
